From the supplement of paper PMC10849652 come the findings set out here.

By UniProt entry, the sequences of proteins in these tests, tags left out. Where a name states a change or a piece, a line headed by the entry shows the natural chain unless it says otherwise.
UniProt Q9BVQ7: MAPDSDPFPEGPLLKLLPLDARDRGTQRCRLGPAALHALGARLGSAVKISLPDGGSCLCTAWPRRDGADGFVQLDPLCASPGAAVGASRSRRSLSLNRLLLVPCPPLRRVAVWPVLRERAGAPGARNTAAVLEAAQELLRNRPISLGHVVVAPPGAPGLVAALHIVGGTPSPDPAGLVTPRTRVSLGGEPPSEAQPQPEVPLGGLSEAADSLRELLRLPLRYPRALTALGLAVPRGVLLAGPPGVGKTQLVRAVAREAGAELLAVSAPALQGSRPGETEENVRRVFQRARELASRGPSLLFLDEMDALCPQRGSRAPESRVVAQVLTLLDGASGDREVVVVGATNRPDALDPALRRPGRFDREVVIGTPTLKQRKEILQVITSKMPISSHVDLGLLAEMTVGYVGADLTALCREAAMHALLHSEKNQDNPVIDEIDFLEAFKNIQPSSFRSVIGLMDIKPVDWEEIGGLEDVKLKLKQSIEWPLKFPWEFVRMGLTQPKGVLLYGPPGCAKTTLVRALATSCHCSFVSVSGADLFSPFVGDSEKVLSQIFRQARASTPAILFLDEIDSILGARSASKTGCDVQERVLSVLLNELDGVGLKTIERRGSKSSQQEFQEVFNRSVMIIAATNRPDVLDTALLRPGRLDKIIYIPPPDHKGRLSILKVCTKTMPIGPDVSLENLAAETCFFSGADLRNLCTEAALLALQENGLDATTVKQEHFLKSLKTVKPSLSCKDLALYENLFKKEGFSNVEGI
UniProt O95793: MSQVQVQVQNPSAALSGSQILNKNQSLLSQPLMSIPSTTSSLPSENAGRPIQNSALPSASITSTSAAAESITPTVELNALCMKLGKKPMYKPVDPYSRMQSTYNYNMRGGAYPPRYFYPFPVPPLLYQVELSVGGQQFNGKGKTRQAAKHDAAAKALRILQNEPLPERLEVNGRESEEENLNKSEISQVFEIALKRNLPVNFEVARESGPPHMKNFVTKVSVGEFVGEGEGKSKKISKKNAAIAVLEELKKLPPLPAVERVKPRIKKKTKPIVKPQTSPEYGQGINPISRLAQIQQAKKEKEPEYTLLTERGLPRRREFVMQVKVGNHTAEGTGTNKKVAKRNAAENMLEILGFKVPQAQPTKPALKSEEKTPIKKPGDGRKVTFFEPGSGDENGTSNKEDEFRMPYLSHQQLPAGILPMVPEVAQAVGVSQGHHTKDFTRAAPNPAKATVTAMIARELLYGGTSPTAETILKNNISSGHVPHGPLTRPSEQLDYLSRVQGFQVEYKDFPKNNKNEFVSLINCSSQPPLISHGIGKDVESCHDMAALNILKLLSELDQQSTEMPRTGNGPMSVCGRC
UniProt Q08AE8, whole entry, looked up: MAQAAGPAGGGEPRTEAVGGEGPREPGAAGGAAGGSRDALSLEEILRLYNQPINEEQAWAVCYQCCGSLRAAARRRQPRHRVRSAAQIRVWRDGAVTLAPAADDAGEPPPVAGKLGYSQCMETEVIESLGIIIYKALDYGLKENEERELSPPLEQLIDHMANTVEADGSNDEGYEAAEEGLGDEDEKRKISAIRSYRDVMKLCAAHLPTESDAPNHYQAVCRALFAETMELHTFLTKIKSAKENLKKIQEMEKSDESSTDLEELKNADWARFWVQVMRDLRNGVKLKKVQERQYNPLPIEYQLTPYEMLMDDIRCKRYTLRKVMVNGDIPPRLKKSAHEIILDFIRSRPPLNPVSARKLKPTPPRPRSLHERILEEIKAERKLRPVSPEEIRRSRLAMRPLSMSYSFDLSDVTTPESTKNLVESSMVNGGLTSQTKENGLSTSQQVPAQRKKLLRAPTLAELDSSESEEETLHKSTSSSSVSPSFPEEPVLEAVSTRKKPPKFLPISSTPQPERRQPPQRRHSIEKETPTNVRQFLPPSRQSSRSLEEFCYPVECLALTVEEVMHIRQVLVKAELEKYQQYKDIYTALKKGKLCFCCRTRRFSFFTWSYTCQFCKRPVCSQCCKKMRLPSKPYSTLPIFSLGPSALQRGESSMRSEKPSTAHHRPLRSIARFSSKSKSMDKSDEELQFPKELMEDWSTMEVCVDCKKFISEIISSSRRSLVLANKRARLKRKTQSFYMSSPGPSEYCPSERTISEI
UniProt Q86XZ4: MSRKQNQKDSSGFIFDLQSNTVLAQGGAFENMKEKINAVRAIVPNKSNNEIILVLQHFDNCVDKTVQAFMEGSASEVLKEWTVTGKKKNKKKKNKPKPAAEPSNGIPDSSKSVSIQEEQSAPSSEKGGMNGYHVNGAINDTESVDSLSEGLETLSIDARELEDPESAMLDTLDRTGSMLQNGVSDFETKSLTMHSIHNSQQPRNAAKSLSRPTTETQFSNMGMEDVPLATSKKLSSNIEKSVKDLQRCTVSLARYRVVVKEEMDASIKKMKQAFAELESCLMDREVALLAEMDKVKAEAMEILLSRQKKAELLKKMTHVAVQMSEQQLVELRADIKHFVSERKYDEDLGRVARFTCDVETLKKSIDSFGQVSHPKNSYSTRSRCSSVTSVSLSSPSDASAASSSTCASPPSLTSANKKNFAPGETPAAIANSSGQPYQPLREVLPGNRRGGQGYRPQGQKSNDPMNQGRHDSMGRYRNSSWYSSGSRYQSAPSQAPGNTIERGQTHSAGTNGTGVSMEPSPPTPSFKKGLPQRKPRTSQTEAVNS
UniProt Q8NB90: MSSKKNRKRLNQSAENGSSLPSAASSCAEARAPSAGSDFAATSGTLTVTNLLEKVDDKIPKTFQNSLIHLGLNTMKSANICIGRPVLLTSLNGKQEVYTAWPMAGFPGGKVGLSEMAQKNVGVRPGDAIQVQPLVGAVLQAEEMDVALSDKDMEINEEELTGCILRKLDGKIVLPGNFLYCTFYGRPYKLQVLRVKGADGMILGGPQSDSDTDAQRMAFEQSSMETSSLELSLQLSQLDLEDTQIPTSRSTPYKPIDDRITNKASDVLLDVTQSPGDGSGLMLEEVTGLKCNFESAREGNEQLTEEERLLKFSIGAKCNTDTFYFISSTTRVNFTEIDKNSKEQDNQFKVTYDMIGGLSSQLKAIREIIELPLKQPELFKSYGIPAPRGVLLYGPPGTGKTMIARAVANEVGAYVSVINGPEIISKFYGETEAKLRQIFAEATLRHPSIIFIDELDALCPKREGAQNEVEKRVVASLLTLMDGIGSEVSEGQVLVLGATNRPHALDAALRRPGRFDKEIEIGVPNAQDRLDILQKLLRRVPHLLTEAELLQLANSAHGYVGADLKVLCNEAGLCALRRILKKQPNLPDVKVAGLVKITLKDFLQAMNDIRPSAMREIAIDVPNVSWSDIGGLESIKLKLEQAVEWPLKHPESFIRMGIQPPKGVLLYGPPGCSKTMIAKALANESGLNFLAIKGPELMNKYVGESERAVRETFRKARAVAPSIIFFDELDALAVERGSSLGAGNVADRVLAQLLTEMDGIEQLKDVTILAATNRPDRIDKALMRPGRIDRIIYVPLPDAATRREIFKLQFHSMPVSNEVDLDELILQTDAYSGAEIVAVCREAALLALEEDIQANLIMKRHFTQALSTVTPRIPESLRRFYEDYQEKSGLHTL
UniProt Q9UHB9: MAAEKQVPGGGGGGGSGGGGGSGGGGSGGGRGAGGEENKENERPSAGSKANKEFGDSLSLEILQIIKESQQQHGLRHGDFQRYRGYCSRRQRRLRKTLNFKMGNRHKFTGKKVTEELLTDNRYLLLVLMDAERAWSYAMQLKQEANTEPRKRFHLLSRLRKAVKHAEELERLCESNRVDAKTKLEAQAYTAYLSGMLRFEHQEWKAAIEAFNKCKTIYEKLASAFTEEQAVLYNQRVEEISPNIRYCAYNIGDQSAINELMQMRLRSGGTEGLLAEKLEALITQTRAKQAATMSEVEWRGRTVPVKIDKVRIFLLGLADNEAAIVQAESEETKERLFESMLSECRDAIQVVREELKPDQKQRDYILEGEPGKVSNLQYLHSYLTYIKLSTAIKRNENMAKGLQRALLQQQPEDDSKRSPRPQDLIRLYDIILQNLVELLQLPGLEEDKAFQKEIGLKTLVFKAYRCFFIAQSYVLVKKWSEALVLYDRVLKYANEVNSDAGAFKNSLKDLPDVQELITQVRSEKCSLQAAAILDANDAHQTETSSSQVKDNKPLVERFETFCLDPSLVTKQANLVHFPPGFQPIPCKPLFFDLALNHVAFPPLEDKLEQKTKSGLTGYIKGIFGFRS
UniProt Q8WW59: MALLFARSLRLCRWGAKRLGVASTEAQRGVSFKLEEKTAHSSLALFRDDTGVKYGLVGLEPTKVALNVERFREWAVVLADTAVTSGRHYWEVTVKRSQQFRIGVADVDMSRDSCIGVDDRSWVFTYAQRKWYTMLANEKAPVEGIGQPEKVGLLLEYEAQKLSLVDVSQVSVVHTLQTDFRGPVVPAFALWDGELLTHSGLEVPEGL
UniProt Q16842: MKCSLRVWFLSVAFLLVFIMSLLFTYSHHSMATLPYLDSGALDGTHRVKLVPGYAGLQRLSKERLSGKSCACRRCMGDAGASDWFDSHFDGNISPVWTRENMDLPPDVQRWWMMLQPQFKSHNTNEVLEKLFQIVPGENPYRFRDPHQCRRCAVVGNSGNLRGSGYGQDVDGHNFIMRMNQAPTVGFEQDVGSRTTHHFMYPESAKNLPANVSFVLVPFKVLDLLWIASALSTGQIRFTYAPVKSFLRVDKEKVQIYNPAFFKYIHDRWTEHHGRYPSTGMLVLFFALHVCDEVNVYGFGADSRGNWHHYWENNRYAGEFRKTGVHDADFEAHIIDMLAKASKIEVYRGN
UniProt O43805: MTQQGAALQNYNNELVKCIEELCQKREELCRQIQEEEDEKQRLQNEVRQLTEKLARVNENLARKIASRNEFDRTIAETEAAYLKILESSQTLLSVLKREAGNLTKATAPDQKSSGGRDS
UniProt Q9GZT4: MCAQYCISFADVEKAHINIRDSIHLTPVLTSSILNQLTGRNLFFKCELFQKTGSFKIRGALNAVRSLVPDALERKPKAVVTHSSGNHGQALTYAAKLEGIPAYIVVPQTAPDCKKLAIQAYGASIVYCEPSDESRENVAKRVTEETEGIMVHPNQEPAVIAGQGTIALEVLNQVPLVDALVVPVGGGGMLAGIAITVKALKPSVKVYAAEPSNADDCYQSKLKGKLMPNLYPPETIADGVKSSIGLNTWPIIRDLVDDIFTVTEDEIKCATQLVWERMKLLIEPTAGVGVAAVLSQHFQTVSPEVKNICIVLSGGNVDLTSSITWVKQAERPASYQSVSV
UniProt Q69YQ0: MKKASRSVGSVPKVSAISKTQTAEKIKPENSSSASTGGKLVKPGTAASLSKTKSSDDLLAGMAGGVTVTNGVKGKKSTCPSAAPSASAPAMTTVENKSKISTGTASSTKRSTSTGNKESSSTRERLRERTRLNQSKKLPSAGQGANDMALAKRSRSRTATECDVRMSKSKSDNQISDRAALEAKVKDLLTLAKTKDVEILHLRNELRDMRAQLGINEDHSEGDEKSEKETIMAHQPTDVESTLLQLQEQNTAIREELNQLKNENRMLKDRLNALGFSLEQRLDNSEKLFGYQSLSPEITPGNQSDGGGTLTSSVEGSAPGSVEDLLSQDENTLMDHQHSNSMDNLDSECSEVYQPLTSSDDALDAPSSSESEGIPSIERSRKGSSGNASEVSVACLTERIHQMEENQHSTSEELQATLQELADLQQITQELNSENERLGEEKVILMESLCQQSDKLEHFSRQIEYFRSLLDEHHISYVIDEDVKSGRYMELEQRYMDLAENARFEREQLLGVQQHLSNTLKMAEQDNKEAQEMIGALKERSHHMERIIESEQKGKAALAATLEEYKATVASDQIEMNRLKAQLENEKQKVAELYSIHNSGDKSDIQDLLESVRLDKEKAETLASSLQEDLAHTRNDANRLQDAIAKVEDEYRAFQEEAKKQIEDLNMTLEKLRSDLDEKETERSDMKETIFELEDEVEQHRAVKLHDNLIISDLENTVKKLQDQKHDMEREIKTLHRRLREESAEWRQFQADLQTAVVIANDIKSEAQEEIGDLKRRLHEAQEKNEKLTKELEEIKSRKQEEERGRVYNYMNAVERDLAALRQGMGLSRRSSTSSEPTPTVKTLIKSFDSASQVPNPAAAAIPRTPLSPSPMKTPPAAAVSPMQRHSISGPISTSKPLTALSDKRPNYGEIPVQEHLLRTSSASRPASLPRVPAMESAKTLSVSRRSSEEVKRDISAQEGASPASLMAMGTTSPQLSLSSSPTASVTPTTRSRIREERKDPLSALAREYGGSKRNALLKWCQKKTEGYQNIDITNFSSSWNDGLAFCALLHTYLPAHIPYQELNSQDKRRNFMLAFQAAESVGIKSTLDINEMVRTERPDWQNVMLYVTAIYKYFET
UniProt P43307: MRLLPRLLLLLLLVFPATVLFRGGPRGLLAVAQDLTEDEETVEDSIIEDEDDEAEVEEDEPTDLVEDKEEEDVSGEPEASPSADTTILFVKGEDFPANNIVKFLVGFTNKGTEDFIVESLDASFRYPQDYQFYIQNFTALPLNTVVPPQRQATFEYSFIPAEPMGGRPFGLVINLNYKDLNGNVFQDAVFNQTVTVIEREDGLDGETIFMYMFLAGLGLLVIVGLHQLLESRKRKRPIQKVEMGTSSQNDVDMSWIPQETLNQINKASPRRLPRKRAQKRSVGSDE

The other results are listed elsewhere or left out.

Compound in the first assay: CS(=O)(=O)CCNCc1ccc(-c2ccc3ncnc(Nc4ccc(OCc5cccc(F)c5)c(Cl)c4)c3c2)o1 [lapatinib]
Nature of the assay: log2 fold change, soluble protein after heating vs DMSO (PISA); higher = thermal stabilisation; K562 lysate, 10 uM; active = over 0.2 and 3.5 SD of the protein, either way, in both replicates (recomputed). A digest of the protocol:
(§1)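 A 30 min treatment with 10 μM compound was applied to crude K562 extract at 1 mg/mL protein in PBS pH 7.4 with 1 mM MgCl2. Heating for 3 min spanned 48°C-58°C, after which aliquots were pooled, adjusted to 0.5% NP-40 at 4°C and spun at 21,000xg for 90 min. TMTpro 16plex LC-MS/MS of the supernatant, with channel sums equalised, gave values recorded as log-two fold change in thermal stability against solvent controls, from duplicates.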
Take SREBF2 (UniProt Q12772): the log2 fold change is inactive: -0.033.

On to SPDL1 (UniProt Q96EA4), for which the log2 fold change is inactive: 0.013.

As to SSU72 (UniProt Q9NP77), the log2 fold change was inactive: -0.02.

For the target SRPK1 (UniProt Q96SB4), the log2 fold change was inactive: -0.006.

For STAMBP (UniProt O95630), the log2 fold change is inactive: 0.011.

As for SPTLC2 (UniProt O15270), the log2 fold change was inactive: -0.026.

For the target SRSF4 (UniProt Q08170), the log2 fold change was inactive: 0.01.

As to SRSF1 (UniProt Q07955), the log2 fold change is inactive: -0.008.

Regarding SRSF6 (UniProt Q13247), the log2 fold change is inactive: 0.006.

Consider SPTBN2 (UniProt O15020), for which the log2 fold change is inactive: -0.01.

Turning to SPATA5L1 (UniProt Q9BVQ7), the log2 fold change was inactive: -0.017.

Take STAU1 (UniProt O95793): the log2 fold change is inactive: -0.018.

For the target SPIRE1 (UniProt Q08AE8), the log2 fold change was inactive: -0.019.

Consider SPR (UniProt P35270), for which the log2 fold change is inactive: -0.015.

In the case of SPATS2 (UniProt Q86XZ4), the log2 fold change was inactive: 0.027.

With SPATA5 (UniProt Q8NB90), the log2 fold change was inactive: -0.017.

Turning to SRP68 (UniProt Q9UHB9), the log2 fold change is inactive: 0.009.

Turning to SPCS3 (UniProt P61009), the log2 fold change was inactive: -0.009.

On to SPRYD4 (UniProt Q8WW59), for which the log2 fold change was inactive: -0.046.

In the case of SSBP1 (UniProt Q04837), the log2 fold change is inactive: -0.013.

Consider SRBD1 (UniProt Q8N5C6), for which the log2 fold change is inactive: 0.019.

Take ST3GAL2 (UniProt Q16842): the log2 fold change is inactive: 0.017.

With SRCAP (UniProt Q6ZRS2), the log2 fold change is inactive: 0.013.

As to SSNA1 (UniProt O43805), the log2 fold change is inactive: 0.012.

As for SRP72 (UniProt O76094), the log2 fold change was inactive: 0.003.

SPAST (UniProt Q9UBP0): the log2 fold change is inactive: 0.04.

As to SPG21 (UniProt Q9NZD8), the log2 fold change was inactive: -0.071.

As to SRRM2 (UniProt Q9UQ35), the log2 fold change is inactive: 0.042.

In the case of SRR (UniProt Q9GZT4), the log2 fold change is inactive: -0.066.

SPECC1L (UniProt Q69YQ0): the log2 fold change was inactive: -0.024.

On to SSR1 (UniProt P43307), for which the log2 fold change is inactive: 0.009.

For SRF (UniProt P11831), the log2 fold change is inactive: 0.016.

Compound in another assay: CS(=O)(=O)N1CCN(Cc2cc3nc(-c4cccc5[nH]ncc45)nc(N4CCOCC4)c3s2)CC1 [pictilisib]
The description is as above. A digest of the protocol:
as §1
Take SREBF2 (UniProt Q12772): the log2 fold change was inactive: -0.025.

Regarding SPDL1 (UniProt Q96EA4), the log2 fold change was inactive: 0.022.

On to SSU72 (UniProt Q9NP77), for which the log2 fold change is inactive: 0.008.

Consider SRPK1 (UniProt Q96SB4), for which the log2 fold change is inactive: 0.008.

As to STAMBP (UniProt O95630), the log2 fold change was inactive: 0.013.

As for SPTLC2 (UniProt O15270), the log2 fold change is inactive: 0.032.

As to SRSF4 (UniProt Q08170), the log2 fold change is inactive: 0.001.

Take SRSF1 (UniProt Q07955): the log2 fold change is inactive: -0.018.

For the target SRSF6 (UniProt Q13247), the log2 fold change was inactive: 0.017.

For the target SPTBN2 (UniProt O15020), the log2 fold change is inactive: -0.024.

With SPATA5L1 (UniProt Q9BVQ7), the log2 fold change was inactive: 0.011.

Consider STAU1 (UniProt O95793), for which the log2 fold change was inactive: 0.03.

Turning to SPIRE1 (UniProt Q08AE8), the log2 fold change was inactive: 0.012.

As to SPR (UniProt P35270), the log2 fold change was active: 0.472.

Take SPATS2 (UniProt Q86XZ4): the log2 fold change was inactive: -0.119.

In the case of SPATA5 (UniProt Q8NB90), the log2 fold change is inactive: -0.009.

Consider SRP68 (UniProt Q9UHB9), for which the log2 fold change is inactive: 0.027.

As to SPCS3 (UniProt P61009), the log2 fold change was inactive: -0.014.

Take SPRYD4 (UniProt Q8WW59): the log2 fold change is inactive: -0.003.

With SSBP1 (UniProt Q04837), the log2 fold change was inactive: 0.017.

On to SRBD1 (UniProt Q8N5C6), for which the log2 fold change is inactive: -0.022.

On to ST3GAL2 (UniProt Q16842), for which the log2 fold change was inactive: 0.

SRCAP (UniProt Q6ZRS2): the log2 fold change is inactive: -0.023.

Regarding SSNA1 (UniProt O43805), the log2 fold change is inactive: -0.015.

For SRP72 (UniProt O76094), the log2 fold change is inactive: -0.001.

SPAST (UniProt Q9UBP0): the log2 fold change was inactive: -0.015.

SPG21 (UniProt Q9NZD8): the log2 fold change was inactive: 0.009.

For the target SRRM2 (UniProt Q9UQ35), the log2 fold change is inactive: 0.004.

Take SRR (UniProt Q9GZT4): the log2 fold change is inactive: -0.04.

For SPECC1L (UniProt Q69YQ0), the log2 fold change was inactive: -0.009.

Take SSR1 (UniProt P43307): the log2 fold change is inactive: 0.009.

In the case of SRF (UniProt P11831), the log2 fold change was inactive: -0.024.

Compound in a further assay: C[C@@H](Oc1cc(-c2cnn(C3CCNCC3)c2)cnc1N)c1c(Cl)ccc(F)c1Cl [crizotinib]
Described as above. A digest of the protocol: as §1
As for SREBF2 (UniProt Q12772), the log2 fold change was inactive: -0.013.

For the target SPDL1 (UniProt Q96EA4), the log2 fold change is inactive: 0.023.

For SSU72 (UniProt Q9NP77), the log2 fold change was inactive: -0.042.

On to SRPK1 (UniProt Q96SB4), for which the log2 fold change is inactive: -0.089.

Turning to STAMBP (UniProt O95630), the log2 fold change is inactive: 0.064.

In the case of SPTLC2 (UniProt O15270), the log2 fold change is inactive: -0.014.

As for SRSF4 (UniProt Q08170), the log2 fold change is inactive: 0.021.

On to SRSF1 (UniProt Q07955), for which the log2 fold change is inactive: 0.

In the case of SRSF6 (UniProt Q13247), the log2 fold change is inactive: 0.057.

As for SPTBN2 (UniProt O15020), the log2 fold change was inactive: 0.017.

As for SPATA5L1 (UniProt Q9BVQ7), the log2 fold change was inactive: -0.107.

STAU1 (UniProt O95793): the log2 fold change is inactive: 0.005.

As to SPIRE1 (UniProt Q08AE8), the log2 fold change is inactive: -0.072.

As for SPR (UniProt P35270), the log2 fold change is inactive: 0.276.

Consider SPATS2 (UniProt Q86XZ4), for which the log2 fold change is inactive: 0.09.

With SPATA5 (UniProt Q8NB90), the log2 fold change was inactive: -0.046.

Consider SRP68 (UniProt Q9UHB9), for which the log2 fold change is inactive: -0.043.

For the target SPCS3 (UniProt P61009), the log2 fold change was inactive: 0.018.

Regarding SPRYD4 (UniProt Q8WW59), the log2 fold change was inactive: -0.059.

Take SSBP1 (UniProt Q04837): the log2 fold change was inactive: 0.004.

SRBD1 (UniProt Q8N5C6): the log2 fold change is inactive: -0.052.

Consider ST3GAL2 (UniProt Q16842), for which the log2 fold change was inactive: -0.054.

Consider SRCAP (UniProt Q6ZRS2), for which the log2 fold change was inactive: -0.001.

Consider SSNA1 (UniProt O43805), for which the log2 fold change was inactive: 0.138.

As to SRP72 (UniProt O76094), the log2 fold change is inactive: -0.018.

On to SPAST (UniProt Q9UBP0), for which the log2 fold change is inactive: -0.01.

SPG21 (UniProt Q9NZD8): the log2 fold change was inactive: -0.014.

Consider SRRM2 (UniProt Q9UQ35), for which the log2 fold change is inactive: 0.013.

In the case of SRR (UniProt Q9GZT4), the log2 fold change was inactive: 0.006.

As for SPECC1L (UniProt Q69YQ0), the log2 fold change is inactive: -0.004.

On to SSR1 (UniProt P43307), for which the log2 fold change was inactive: -0.019.

On to SRF (UniProt P11831), for which the log2 fold change was inactive: 0.095.
